PubChem BioAssay AID652272 – Drosophila RNAi Screening Center | 2013

Test: 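Genes whose knock-down decreases or increases Hedgehog reporter output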 (primary screen)
System: Drosophila clone 8 (Cl8) cells
Reagents: long dsRNA against Drosophila genes
Read-out: 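Firefly light from a Hedgehog-responsive ptc promoter reporter and Renilla reference light, both read on a plate reader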
Reading the numbers: firefly Hh reporter signal: higher = more ptc reporter light; Renilla reference signal: higher = more Renilla control light
Call rule: 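Called a hit if the two-replicate mean z-score lies below -2 or above +3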
Meaning of the calls: active = hit: reporter lowered or raised; inactive = not a hit
The screen tested about 21,000 reagents; below is a random part of those that have a named target and a result. Over the whole deposit, 503 (2.4%) are marked active. 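Raw plate light values, not normalised; calls rest on replicate z-scores that were not deposited; hits include reporter decreases as well as increases.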 Unmarked entries are inactive. Names joined by + are all predicted targets of the reagent. Not given: the amount of reagent, the time to read-out.

gene knocked down	DRSC id	firefly Hh reporter signal, replicate 1	firefly Hh reporter signal, replicate 2	firefly Hh reporter signal, replicate 3	Renilla reference signal, replicate 1	Renilla reference signal, replicate 2
Cp19 (Chorion protein 19)	DRSC11121	47145	50944		5409	3123
Crtc (CREB-regulated transcription coactivator)	DRSC10578	33880 (active)			3000	1605
knon (knotted onions)	DRSC07049	68829	37571		2000	3037
Adgf-C (Adenosine deaminase-related growth factor C)	DRSC16473	66187	93909		1497	2218
fzy (fizzy)	DRSC03534	58652	18037		1744	1938
yellow-d2	DRSC04591	58624	61890		1529	5050
CR42532 (pseudo)	DRSC06713	1.09e5	88865		2928	6368
Aven (Apoptosis and caspase activation inhibitor)	DRSC19693	92633	2.53e5		3312	9050
Alp1 (Alkaline phosphatase 1)	DRSC11781	95121	1.21e5		3888	4128
Bbd (Bombardier)	DRSC06709	95559	36726		2642	1909
asRNA:CR42547 + CG15674	DRSC04264	77712	43825		2086	4309
indra	DRSC08558	78755	69616		3939	3297
dally (division abnormally delayed)	DRSC08954	1.08e5	2.33e5		2969	9265
dally (division abnormally delayed)	DRSC11338	69842	58802		2964	2359
CG13738	DRSC10065	38784	25645	30487	4472	1306
kappaTry	DRSC06146	77410	46994		1952	3712
RhoGEF2 (Rho guanine nucleotide exchange factor 2)	DRSC07531	1.20e5	98090		4744	3616
Coq4 + frc	DRSC10381	99586			2101	3373
Coq4 + frc	DRSC10382	1.11e5			5683	3543
ebd1 (earthbound 1)	DRSC08565	1.47e5	65033		6097	2626
CG15922	DRSC15128	7.16e5	1.54e5		37480	3093
CG9287	DRSC03186	1.47e5	5.95e5	85954	3541	36080
MRP (Multidrug-Resistance like Protein 1)	DRSC02942	98875	36208		4290	2000
RapGAP1 (Rap GTPase activating protein 1)	DRSC02293	1.27e5	4.97e5	58192	3084	30331
RapGAP1 (Rap GTPase activating protein 1)	DRSC02294	94563	51210		2757	4699
RapGAP1 (Rap GTPase activating protein 1)	DRSC02295	1.42e5	64884		3440	6364
RapGAP1 (Rap GTPase activating protein 1)	DRSC03406	92884	1.09e5		2796	5082
CG14034	DRSC02359	82859	46720		2567	4674
Tim8	DRSC20291	1.23e5	4.05e5		4245	13481
SoxN (SoxNeuro)	DRSC03440	1.10e5	5.05e5	65270	2276	28483
CG14000 + bchs	DRSC02333	89195	39830		2253	4069
CARPB (Carbonic anhydrase-related protein B)	DRSC18437	1.41e5	1.31e5		3233	3184
CARPB (Carbonic anhydrase-related protein B)	DRSC18438	85293	2.57e5		2599	8528
Nf-YC (Nuclear factor Y-box C)	DRSC18272	36754	38902		1700	2432
CG7071 + Muted	DRSC16189	5.13e5	1.93e5		23600	4836
ytr (yantar)	DRSC04306	1.10e5	1.47e5		4896	4949
CG15399	DRSC00413	1.43e5	1.25e5		3355	3424
Obp56i (Odorant-binding protein 56i)	DRSC05812	1.34e5	2.92e5		3952	11276
Gr10a (Gustatory receptor 10a)	DRSC18897	8.78e5	3.22e5		44484	4220
Snap25 (Synaptosomal-associated protein 25kDa)	DRSC21228	1.26e5	4.10e5		4951	14411
Snap25 (Synaptosomal-associated protein 25kDa)	DRSC21236	8.99e5	3.51e5		51732	8275
Six4	DRSC11881	1.19e5	1.35e5		4323	3926
Tektin-C (Tektin C)	DRSC09741	31043 (active)	28752		6902	3619
ppk20 (pickpocket 20)	DRSC16260	53564	81776		2164	2512
CG12589	DRSC12215	62406	75728		709	1286
RpL27A (Ribosomal protein L27A)	DRSC00781	38589 (active)	17936		2061	3404
nmdyn-D6	DRSC20355	88551	2.22e5		3012	8768
Atac1 (Ada2a-containing complex component 1)	DRSC03155	1.31e5	61676		3301	6760
CG42262 (retired record)	DRSC17628	3.91e5	1.30e5		23541	2272
CG42262 (retired record)	DRSC17974	78986	2.97e5		1687	10189
CG7794	DRSC16313	4.90e5	79859		25728	2114
ASPP	DRSC04305	72283	32951		1946	2941
CG33773	DRSC14032	5.72e5	2.43e5		29369	4714
Rrp47 (Ribosomal RNA processing 47)	DRSC20124	1.04e5	1.81e5		2642	8608
Tsp42Eq (Tetraspanin 42Eq)	DRSC06180	76394	49500		1719	4413
CG13855	DRSC14705	9.59e5	2.20e5		48587	5607
CG9107	DRSC03138	1.00e5	76338		3747	2957
